PubChem BioAssay AID1224829 | NIAID, 2016
Assay: 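Follow-up of TLR4-NF-kappaB regulators using six separate siRNAs for each gene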 (follow-up of hits). System: mouse RAW264.7 G9 macrophage reporter cells. Reagents: single siRNA against mouse genes, 100 nM. Duration: 2 days of siRNA knock-down, then 40 min of LPS before fixing. Challenge: LPS (Salmonella minnesota R595) at 10 ng/ml. Detection: 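High-content images after 40 min LPS exposure; GFP-p65 nucleus to surrounding ring signal ratio, normalised to plate median and non-targeting control wells, expressed as z-score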. Reading the numbers: p65 translocation z-score: higher = more nuclear NF-kappaB p65 after LPS. Rule for the call: 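An siRNA is called active when the mean z-score of its two replicates is above 2 or below -2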. Meaning of the calls: active = changed p65 translocation (either direction); inactive = no clear change.
This is a random part of about 3,800 deposited reagents. 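Calls cover raised and lowered translocation; gene median uses one vendor's three siRNAs; qiagen siRNAs acted more weakly than ambion siRNAs.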 Reagents against one gene are numbered here. Further read-outs or replicates are left out here. Reagent sequences are not shown.

Pex13 (peroxisomal biogenesis factor 13) #1, siRNA vendor or control pool ambion single siRNA | p65 translocation z-score, replicate mean = -2.12; p65 translocation z-score, replicate 1 = -2.4; outcome = active
Pex13 (peroxisomal biogenesis factor 13) #2, siRNA vendor or control pool ambion single siRNA | p65 translocation z-score, replicate mean = -3.25; p65 translocation z-score, replicate 1 = -2.65; outcome = active
Pex13 (peroxisomal biogenesis factor 13) #3, siRNA vendor or control pool ambion single siRNA | p65 translocation z-score, replicate mean = -2.68; p65 translocation z-score, replicate 1 = -3.27; outcome = active
Pex13 (peroxisomal biogenesis factor 13) #4, siRNA vendor or control pool qiagen single siRNA | p65 translocation z-score, replicate mean = 2.08; p65 translocation z-score, replicate 1 = 1.25; outcome = active
Pex13 (peroxisomal biogenesis factor 13) #5, siRNA vendor or control pool qiagen single siRNA | p65 translocation z-score, replicate mean = 2.56; p65 translocation z-score, replicate 1 = 0.937; outcome = active
Pex13 (peroxisomal biogenesis factor 13) #6, siRNA vendor or control pool qiagen single siRNA | p65 translocation z-score, replicate mean = 0.23; p65 translocation z-score, replicate 1 = 0.136; outcome = inactive

Reagents above marked active (5):
Pex13 (peroxisomal biogenesis factor 13) #1, siRNA vendor or control pool ambion single siRNA | p65 translocation z-score, replicate mean = -2.12; p65 translocation z-score, replicate 1 = -2.4; outcome = active
Pex13 (peroxisomal biogenesis factor 13) #2, siRNA vendor or control pool ambion single siRNA | p65 translocation z-score, replicate mean = -3.25; p65 translocation z-score, replicate 1 = -2.65; outcome = active
Pex13 (peroxisomal biogenesis factor 13) #3, siRNA vendor or control pool ambion single siRNA | p65 translocation z-score, replicate mean = -2.68; p65 translocation z-score, replicate 1 = -3.27; outcome = active
Pex13 (peroxisomal biogenesis factor 13) #4, siRNA vendor or control pool qiagen single siRNA | p65 translocation z-score, replicate mean = 2.08; p65 translocation z-score, replicate 1 = 1.25; outcome = active
Pex13 (peroxisomal biogenesis factor 13) #5, siRNA vendor or control pool qiagen single siRNA | p65 translocation z-score, replicate mean = 2.56; p65 translocation z-score, replicate 1 = 0.937; outcome = active

The listing continues:
Tmem18 (transmembrane protein 18) #1, siRNA vendor or control pool ambion single siRNA | p65 translocation z-score, replicate mean = -4.01; p65 translocation z-score, replicate 1 = -5.59; outcome = active
Tmem18 (transmembrane protein 18) #2, siRNA vendor or control pool ambion single siRNA | p65 translocation z-score, replicate mean = 1.5; p65 translocation z-score, replicate 1 = 2.45; outcome = inactive
Tmem18 (transmembrane protein 18) #3, siRNA vendor or control pool ambion single siRNA | p65 translocation z-score, replicate mean = -4.23; p65 translocation z-score, replicate 1 = -5.28; outcome = active
Tmem18 (transmembrane protein 18) #4, siRNA vendor or control pool qiagen single siRNA | p65 translocation z-score, replicate mean = 0.955; p65 translocation z-score, replicate 1 = 0.369; outcome = inactive
Tmem18 (transmembrane protein 18) #5, siRNA vendor or control pool qiagen single siRNA | p65 translocation z-score, replicate mean = -1.76; p65 translocation z-score, replicate 1 = -1.74; outcome = inactive
Tmem18 (transmembrane protein 18) #6, siRNA vendor or control pool qiagen single siRNA | p65 translocation z-score, replicate mean = -0.296; p65 translocation z-score, replicate 1 = 0.489; outcome = inactive
